PubChem BioAssay AID1224830, NIAID – 2016
The whole screen tested about 18,000 reagents; shown is a part drawn at random. About 2,900 of them (16%) count as active. 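Calls are made per well; low scores hint the gene aids the LPS response, high scores that it dampens it.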 Repeated entries: four replicate wells of each siRNA pool. Reagent sequences are not shown.

Aim: 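Host factors that control LPS-induced TNF expression in human macrophages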 (primary screen)
System: human THP-1 monocytic leukaemia cells, TNF dual-luciferase reporter clone, PMA-differentiated to macrophage-like cells
Reagent: siRNA pool against human genes, 50 nM
Duration: LPS for 4 h, given about 3 days after siRNA transfection
Conditions: bacterial LPS (TLR4 ligand), 10 ng/ml
Measurement: 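TNF firefly reporter luminescence divided by renilla, normalised to the plate median, then turned into a robust z-score for each replicate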
Scale: TNF reporter robust z-score: higher = stronger TNF reporter response to LPS
Call rule: 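Each well counts as active if its z-score is over 2.8 or under -1.5; controls are left without a call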

gene knocked down	TNF reporter robust z-score	outcome
ZNF596	1.79	inactive
ZNF596	-0.54	inactive
ZNF596	-0.9	inactive
ZNF596	-0.77	inactive
FAM47C	4.17	active
FAM47C	3.48	active
FAM47C	3.03	active
FAM47C	1.02	inactive
TEDC1	0.66	inactive
TEDC1	2.29	inactive
TEDC1	-0.11	inactive
TEDC1	1.17	inactive
ZNF800	-0.44	inactive
ZNF800	0.04	inactive
ZNF800	0.24	inactive
ZNF800	0.39	inactive
DEPDC5	-0.72	inactive
DEPDC5	-0.7	inactive
DEPDC5	-1.64	active
DEPDC5	-0.38	inactive
WFDC11	0.84	inactive
WFDC11	-0.14	inactive
WFDC11	0.04	inactive
WFDC11	0.22	inactive
WBP2NL	-0.76	inactive
WBP2NL	-0.04	inactive
WBP2NL	0.16	inactive
WBP2NL	-0.61	inactive
AGBL2	0.16	inactive
AGBL2	-1.25	inactive
AGBL2	-0.52	inactive
AGBL2	-1.35	inactive
DOC2B	-0.96	inactive
DOC2B	-0.03	inactive
DOC2B	-0.2	inactive
DOC2B	0.17	inactive
YIPF4	1.23	inactive
YIPF4	0.28	inactive
YIPF4	0.74	inactive
YIPF4	0.62	inactive
ATP6V0C	-0.35	inactive
ATP6V0C	-0.4	inactive
ATP6V0C	-0.15	inactive
ATP6V0C	-0.1	inactive
CLINT1	-1.61	active
CLINT1	-1.26	inactive
CLINT1	-1.39	inactive
CLINT1	-1.13	inactive
PGBD2	-1.02	inactive
PGBD2	-0.41	inactive
PGBD2	-0.71	inactive
CKB	-0.75	inactive
CKB	0.08	inactive
CKB	-1.2	inactive
CKB	-0.43	inactive
OR2AE1	-0.03	inactive
OR2AE1	0.23	inactive
OR2AE1	0.33	inactive
OR2AE1	0.71	inactive
TMEM183BP	-0.43	inactive
TMEM183BP	0.04	inactive
TMEM183BP	-0.3	inactive
TMEM183BP	-0.08	inactive
SRF	-0.32	inactive
SRF	-0.04	inactive
SRF	-0.33	inactive
SRF	-0.01	inactive

Copied from the listing (8 entries):
gene knocked down	TNF reporter robust z-score	outcome
ZNF800	0.39	inactive
DEPDC5	-0.72	inactive
DEPDC5	-0.7	inactive
DEPDC5	-1.64	active
DEPDC5	-0.38	inactive
WFDC11	0.84	inactive
WFDC11	-0.14	inactive
WFDC11	0.04	inactive

More reagents follow:
gene knocked down	TNF reporter robust z-score	outcome
PRKACB	-0.6	inactive
PRKACB	1.31	inactive
PRKACB	0.39	inactive
TRIM41	-1.03	inactive
TRIM41	-2.18	active
TRIM41	-0.24	inactive
TRIM41	-1.29	inactive
LRRD1	2.19	inactive
LRRD1	2.54	inactive
LRRD1	-0.73	inactive
LRRD1	-0.85	inactive
AKT3	-0.27	inactive
AKT3	-0.08	inactive
AKT3	-1.16	inactive
AKT3	-0.65	inactive
WASHC5		inactive
WASHC5	0.28	inactive
WASHC5	0.38	inactive
WASHC5	0.67	inactive
WASHC5	0.13	inactive
SERINC1	-1.1	inactive
SERINC1	-0.6	inactive
SERINC1	-1.07	inactive
SERINC1	-0.86	inactive
DDC	-0.52	inactive
DDC	-0.38	inactive
DDC	0.66	inactive
DDC	-0.72	inactive
MTF1	-0.52	inactive
MTF1	0.17	inactive
MTF1	0.37	inactive
MTF1	0.82	inactive
SSX2IP	0	inactive
SSX2IP	-0.27	inactive
SSX2IP	0.31	inactive
SSX2IP	0.11	inactive
COL24A1	0.51	inactive
COL24A1	1.19	inactive
COL24A1	0.56	inactive
COL24A1	-0.59	inactive
PRSS21	-0.3	inactive
PRSS21	1.75	inactive
PRSS21	-0.13	inactive
PRSS21	-0.09	inactive
ZNF662	1.47	inactive
ZNF662	0.96	inactive
ZNF662	0.17	inactive
ZNF662	2.3	inactive
NID1	1.19	inactive
NID1	0.13	inactive
NID1	0.67	inactive
NID1	-0.76	inactive
ALG2	0.16	inactive
ALG2	-1.3	inactive
ALG2	-1.34	inactive
ALG2	-0.45	inactive
CYB561D2	0.13	inactive
CYB561D2	1.58	inactive
CYB561D2	0.67	inactive
CYB561D2	1.41	inactive
RCBTB1		inactive
RCBTB1	-0.25	inactive
RCBTB1	-0.23	inactive
RCBTB1	-0.2	inactive
RCBTB1	-0.07	inactive
PTGES3	-1.08	inactive
PTGES3	-1.25	inactive
PTGES3	-0.93	inactive
BOP1	-0.43	inactive
BOP1	-0.11	inactive
BOP1	-0.73	inactive
BOP1	-0.61	inactive
CHRM3	-0.74	inactive
CHRM3	0.51	inactive
CHRM3	-0.16	inactive
CHRM3	0.28	inactive
